Experimental findings from patent publication US12366572B2, “Activation of bioluminescence by structural complementation” (Promega Corporation, priority 2013, dated 2025) are described below.

The test system of data set [1] is HEK293T cells. The data set can be described thus: Western blot of expression level after transfection into HEK293T cells (Example 117). Format: cell-based.
Data set [2] has as its system HEK293T cells. The data set is described as follows: Protein expression level in HEK293T lysates by HaloTag TMR ligand gel (Example 143). It counts as cell-based.

B1: NLPoly156: purified non-luminescent polypeptide NLpoly156, compared with NLpoly11S and NanoLuc (protein)
chain: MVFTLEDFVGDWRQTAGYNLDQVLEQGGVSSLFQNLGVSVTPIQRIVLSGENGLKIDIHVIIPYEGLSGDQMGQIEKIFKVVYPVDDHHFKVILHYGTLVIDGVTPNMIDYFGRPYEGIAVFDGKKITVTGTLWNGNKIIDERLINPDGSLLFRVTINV
Regarding B1, the “Expression level compared to full-length NanoLuc luciferase” value in the data set on HEK293T cells [1] was “does not express as well as NanoLuc® luciferase (Nluc)”.

B2: 11S: evolved non-luminescent polypeptide variant 11S (12S-51) (protein)
chain: MVFTLEDFVGDWEQTAAYNLDQVLEQGGVSSLLQNLAVSVTPIQRIVRSGENALKIDIHVIIPYEGLSADQMAQIEEVFKVVYPVDDHHFKVILPYGTLVIDGVTPNMLNYFGRPYEGIAVFDGKKITVTGTLWNGNKIIDERLITPDGSMLFRVTINS
On to B2, for which the “Expression level relative to 1-156” value with HEK293T cells [2] is on record as “approximately 4 fold”. Moreover, the “Expression level compared to full-length NanoLuc luciferase” value in the data set on HEK293T cells [1] is on record as “expresses similarly to Nluc”.

B3: NanoLuc: full-length NanoLuc luciferase (Promega), SEQ ID NO: 2157 (protein)
chain: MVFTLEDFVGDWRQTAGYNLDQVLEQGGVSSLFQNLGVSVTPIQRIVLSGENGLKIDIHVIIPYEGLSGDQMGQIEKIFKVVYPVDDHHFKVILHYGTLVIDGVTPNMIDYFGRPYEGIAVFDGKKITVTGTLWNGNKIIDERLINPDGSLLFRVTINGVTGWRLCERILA
As for B3, the “Expression level relative to 1-156” value in the data set on HEK293T cells [2] is “approximately 4 fold”.
